Measurements published in patent EP3936131A1, “COMPOUNDS FOR THE TREATMENT OF ZIKA” (Dompe' Farmaceutici S.P.A., priority 2020, dated 2022).
Structures can show the parent of a compound that is named as a salt. At least one structure is not confirmed: it was looked up by name or label, or the drawing left a doubt.

Test system: ZIKV (HS-2015-BA-01)
Test: Plaque titration assay of supernatant from ZIKV-infected Vero CCL-81 cells treated with compound
Type: cell-based, Zika Virus
Conditions: 30, 10 and 3 microM (AEE-788 and Olcegepant: 10 and 3 microM); MOI 0.1; two treatments 24 h apart; compared to vehicle control; values only in Figures 1 to 8
Method: The above compounds selected by the CADD analysis were tested in a ZIKV Vero CCL-81 cells (kidney epithelial cells from African green monkey) assay. This assay is based on viral infection of Vero cells followed by visual monitoring of cytopathic effects of the virus.
In details, the above compounds were diluted to the final concentrations of 30 microM, 10 microM and 3 microM. The final volume required for treatment was 200 microliters per well, in a total of 12 wells.
For infection of the cells, ZIKV (HS-2015-BA-01), isolated from a viremic patient with symptomatic infection in Bahia State, Brazil, in 2015, was used. The complete genome of the virus is under access KX520666 in Genbank. Viral dilutions were prepared in Multiplicity of Infection (MOI) at 0.1 according to a standardized method.
In particular, 37,9 microl of virus (6x10^7 pfu/mL) was used or a total of 25.000 microl (25 ml) RPMI-0% FBS medium
100 microliters of the viral dilution (MOI 0,1) were added to each well and incubated at 5% of CO2 at T= 37°C for 1 hour for adsorption step, swift rocking every 15'.
After discarding the supernatant, 200 microliters of diluted compounds at the different concentrations described above, or vehicle were added for each compound and left in incubation at 5% of CO2 at T= 37°C for 24 hours. […]

## Cc1cc(/C=C/c2ccc3cc(N(C)C)ccc3[n+]2C)c(C)n1-c1ccccc1 [Pyrvinium pamoate, 6-(Dimethylamino)-2-[2-(2,5-dimethyl-1-phenyl-1 H-pyrrol-3-yl)vinyl]-1-methylquinolinium hemi[4,4'-methylenebis(3-hydroxynaphthalen-2-carboxylic acid)] salt 6-(Dimethylamino)-2-[2-(2,5-dimethyl-1-phenyl-1 H-pyrrol-3-yl)vinyl]-1-methylquinolinium hemipamoate salt]
  virus replication (viral load expressed as log10 plaque forming equivalents): inhibition of virus replication

## O=C(Nc1cccc2c(=O)cc(-c3nnn[nH]3)oc12)c1ccc(OCCCCc2ccccc2)cc1 [Pranlukast hydrate, N-[4-Oxo-2-(1H-tetrazol-5-yl)-4H-1-benzopyran-8-yl]-4-(4-phenylbutoxy)benzamide hemihydrate]
  virus replication (viral load expressed as log10 plaque forming equivalents): inhibition of virus replication
